Test results reported in the supplement of paper PMC10849652.
The list shows a part of the results.

Sequences of proteins named here, by UniProt entry; tags and fusion partners are left off. A change or cut given only in a name is not applied to a line headed by its entry.
UniProt P28331, whole entry, looked up: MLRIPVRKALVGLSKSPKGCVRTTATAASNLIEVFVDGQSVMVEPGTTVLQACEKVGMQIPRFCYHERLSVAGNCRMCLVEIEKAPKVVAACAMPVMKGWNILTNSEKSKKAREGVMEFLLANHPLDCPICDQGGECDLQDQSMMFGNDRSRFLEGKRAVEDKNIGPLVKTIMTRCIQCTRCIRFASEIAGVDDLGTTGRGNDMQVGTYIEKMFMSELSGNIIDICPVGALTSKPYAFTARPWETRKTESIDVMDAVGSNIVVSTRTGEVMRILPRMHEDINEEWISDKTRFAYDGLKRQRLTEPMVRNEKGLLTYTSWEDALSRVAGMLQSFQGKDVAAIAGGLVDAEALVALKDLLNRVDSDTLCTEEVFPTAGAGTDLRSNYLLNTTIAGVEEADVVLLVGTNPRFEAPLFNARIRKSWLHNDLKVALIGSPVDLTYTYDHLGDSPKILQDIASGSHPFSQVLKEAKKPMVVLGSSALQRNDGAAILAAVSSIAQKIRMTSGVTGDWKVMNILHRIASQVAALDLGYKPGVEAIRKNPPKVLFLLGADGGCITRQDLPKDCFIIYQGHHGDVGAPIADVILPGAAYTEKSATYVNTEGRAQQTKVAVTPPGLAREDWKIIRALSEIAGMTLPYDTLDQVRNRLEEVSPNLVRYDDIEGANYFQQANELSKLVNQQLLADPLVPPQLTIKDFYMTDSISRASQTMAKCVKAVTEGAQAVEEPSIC
UniProt O75489, whole entry, looked up: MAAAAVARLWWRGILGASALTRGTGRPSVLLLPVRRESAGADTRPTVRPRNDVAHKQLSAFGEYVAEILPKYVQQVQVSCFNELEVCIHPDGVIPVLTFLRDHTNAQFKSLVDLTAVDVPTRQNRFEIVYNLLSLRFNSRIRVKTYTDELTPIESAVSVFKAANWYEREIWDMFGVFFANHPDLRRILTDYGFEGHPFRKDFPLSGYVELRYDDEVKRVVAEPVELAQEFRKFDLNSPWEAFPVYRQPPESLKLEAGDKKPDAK
UniProt Q330K2: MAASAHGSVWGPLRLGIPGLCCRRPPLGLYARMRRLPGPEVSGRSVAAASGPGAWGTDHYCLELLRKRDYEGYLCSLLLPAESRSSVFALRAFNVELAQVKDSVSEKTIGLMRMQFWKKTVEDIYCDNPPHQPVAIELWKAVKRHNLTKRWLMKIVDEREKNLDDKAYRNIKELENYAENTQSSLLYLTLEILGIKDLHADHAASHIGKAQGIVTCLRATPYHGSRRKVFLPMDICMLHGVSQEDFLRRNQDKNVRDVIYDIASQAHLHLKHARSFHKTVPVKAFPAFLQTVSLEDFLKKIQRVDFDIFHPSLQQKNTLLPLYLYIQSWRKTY
UniProt P17568, whole entry, looked up: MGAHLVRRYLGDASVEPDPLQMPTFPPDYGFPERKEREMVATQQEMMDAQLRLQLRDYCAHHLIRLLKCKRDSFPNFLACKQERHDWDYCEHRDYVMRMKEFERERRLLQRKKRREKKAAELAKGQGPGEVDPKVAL
UniProt P51970, whole entry, looked up: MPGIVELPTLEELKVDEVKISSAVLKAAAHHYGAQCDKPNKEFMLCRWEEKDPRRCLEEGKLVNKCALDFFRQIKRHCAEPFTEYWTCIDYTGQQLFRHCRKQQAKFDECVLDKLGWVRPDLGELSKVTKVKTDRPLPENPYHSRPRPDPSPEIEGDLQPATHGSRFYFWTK
UniProt Q6N069: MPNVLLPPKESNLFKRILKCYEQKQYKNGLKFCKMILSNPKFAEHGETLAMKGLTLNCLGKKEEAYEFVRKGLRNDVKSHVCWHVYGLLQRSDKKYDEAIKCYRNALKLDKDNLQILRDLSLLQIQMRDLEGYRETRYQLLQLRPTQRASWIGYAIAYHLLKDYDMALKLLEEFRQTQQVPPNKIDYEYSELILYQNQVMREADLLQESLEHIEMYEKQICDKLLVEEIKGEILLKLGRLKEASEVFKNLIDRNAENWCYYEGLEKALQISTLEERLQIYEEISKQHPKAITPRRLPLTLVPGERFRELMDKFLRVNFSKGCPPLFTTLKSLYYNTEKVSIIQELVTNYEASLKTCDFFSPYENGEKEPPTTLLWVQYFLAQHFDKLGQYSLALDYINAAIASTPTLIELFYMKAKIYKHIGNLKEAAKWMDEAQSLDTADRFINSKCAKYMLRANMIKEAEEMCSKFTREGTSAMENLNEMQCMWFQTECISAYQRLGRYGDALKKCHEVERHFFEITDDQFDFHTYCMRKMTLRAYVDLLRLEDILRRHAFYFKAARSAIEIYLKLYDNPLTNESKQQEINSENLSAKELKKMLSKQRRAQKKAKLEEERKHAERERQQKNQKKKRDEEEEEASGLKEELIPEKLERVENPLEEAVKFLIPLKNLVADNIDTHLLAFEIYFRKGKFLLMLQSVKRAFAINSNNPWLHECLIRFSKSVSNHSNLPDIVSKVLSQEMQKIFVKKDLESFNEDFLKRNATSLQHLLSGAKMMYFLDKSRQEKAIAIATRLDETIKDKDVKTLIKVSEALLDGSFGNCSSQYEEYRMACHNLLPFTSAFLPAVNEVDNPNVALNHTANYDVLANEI
UniProt Q9NR45: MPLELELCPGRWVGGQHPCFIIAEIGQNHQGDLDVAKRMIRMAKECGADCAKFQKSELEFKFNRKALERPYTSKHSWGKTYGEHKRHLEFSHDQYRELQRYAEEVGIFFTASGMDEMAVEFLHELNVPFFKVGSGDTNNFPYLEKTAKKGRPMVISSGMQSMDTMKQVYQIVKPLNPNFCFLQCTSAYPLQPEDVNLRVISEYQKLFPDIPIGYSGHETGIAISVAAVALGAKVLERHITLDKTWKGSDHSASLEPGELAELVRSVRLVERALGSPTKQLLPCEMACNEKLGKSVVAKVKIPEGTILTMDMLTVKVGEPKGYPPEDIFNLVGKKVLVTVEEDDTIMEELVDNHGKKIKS
UniProt O75380, whole entry, looked up: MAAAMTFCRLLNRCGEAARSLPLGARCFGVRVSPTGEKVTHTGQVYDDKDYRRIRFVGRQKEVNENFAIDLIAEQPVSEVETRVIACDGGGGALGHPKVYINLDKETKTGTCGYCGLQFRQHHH
UniProt Q9UI09, whole entry, looked up: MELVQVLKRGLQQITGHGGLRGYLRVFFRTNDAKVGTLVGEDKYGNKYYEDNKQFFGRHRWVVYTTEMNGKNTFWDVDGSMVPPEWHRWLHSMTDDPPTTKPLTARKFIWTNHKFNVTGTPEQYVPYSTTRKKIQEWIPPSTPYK
UniProt Q6PIU2: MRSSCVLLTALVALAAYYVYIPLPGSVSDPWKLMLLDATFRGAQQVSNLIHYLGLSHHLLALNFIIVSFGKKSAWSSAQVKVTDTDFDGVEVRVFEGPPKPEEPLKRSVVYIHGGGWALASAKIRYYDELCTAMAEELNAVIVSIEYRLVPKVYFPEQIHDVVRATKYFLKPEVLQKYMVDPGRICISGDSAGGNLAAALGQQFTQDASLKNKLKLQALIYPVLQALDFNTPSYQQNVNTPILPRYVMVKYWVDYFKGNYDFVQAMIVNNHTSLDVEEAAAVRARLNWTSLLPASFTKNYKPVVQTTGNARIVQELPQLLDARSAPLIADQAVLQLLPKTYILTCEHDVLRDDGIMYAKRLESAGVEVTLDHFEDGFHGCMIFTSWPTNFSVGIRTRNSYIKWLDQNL
UniProt Q9BSU3: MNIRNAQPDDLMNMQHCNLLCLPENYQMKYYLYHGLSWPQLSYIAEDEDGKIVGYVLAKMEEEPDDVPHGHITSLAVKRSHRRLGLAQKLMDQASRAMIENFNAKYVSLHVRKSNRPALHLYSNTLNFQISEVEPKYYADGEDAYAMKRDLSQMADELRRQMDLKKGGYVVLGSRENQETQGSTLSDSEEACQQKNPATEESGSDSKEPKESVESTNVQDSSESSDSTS
NBDY, A0A0U1RRE5, UniProt A0A0U1RRE5, whole entry, looked up: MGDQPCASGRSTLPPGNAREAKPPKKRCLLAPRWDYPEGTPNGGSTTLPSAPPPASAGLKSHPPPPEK
UniProt Q9NX14, whole entry, looked up: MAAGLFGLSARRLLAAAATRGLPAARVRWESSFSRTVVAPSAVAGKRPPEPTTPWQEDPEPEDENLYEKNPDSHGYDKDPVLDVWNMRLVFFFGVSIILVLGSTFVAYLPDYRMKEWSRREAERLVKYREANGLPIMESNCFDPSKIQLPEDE
UniProt O75306, whole entry, looked up: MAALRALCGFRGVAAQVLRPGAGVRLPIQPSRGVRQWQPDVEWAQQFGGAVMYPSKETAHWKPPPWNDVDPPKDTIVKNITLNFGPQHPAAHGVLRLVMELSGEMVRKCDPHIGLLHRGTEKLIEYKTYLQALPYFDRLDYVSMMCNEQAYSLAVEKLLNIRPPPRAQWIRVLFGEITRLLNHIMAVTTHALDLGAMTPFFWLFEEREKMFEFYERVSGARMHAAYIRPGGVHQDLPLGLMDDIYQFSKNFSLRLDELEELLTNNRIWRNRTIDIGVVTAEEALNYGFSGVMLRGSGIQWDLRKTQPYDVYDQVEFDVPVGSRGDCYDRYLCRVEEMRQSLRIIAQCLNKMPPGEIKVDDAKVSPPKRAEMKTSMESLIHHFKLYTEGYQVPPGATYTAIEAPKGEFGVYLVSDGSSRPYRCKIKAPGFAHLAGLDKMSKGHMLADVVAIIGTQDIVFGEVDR
UniProt P17050: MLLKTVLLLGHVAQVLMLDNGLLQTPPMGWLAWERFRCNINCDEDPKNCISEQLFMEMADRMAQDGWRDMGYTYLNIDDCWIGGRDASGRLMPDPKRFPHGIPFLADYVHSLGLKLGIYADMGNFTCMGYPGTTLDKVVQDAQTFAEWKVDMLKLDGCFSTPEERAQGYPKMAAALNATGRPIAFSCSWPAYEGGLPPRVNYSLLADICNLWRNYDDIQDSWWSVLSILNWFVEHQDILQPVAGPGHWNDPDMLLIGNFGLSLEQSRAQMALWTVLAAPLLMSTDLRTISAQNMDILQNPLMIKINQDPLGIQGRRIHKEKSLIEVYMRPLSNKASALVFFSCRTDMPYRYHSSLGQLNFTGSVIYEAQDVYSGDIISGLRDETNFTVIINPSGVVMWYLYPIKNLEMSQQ
UniProt B2RBV5: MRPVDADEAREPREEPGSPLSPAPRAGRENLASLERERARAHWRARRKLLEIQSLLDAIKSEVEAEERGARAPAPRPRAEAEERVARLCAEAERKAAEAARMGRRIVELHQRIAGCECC
UniProt Q9BPX3, whole entry, looked up: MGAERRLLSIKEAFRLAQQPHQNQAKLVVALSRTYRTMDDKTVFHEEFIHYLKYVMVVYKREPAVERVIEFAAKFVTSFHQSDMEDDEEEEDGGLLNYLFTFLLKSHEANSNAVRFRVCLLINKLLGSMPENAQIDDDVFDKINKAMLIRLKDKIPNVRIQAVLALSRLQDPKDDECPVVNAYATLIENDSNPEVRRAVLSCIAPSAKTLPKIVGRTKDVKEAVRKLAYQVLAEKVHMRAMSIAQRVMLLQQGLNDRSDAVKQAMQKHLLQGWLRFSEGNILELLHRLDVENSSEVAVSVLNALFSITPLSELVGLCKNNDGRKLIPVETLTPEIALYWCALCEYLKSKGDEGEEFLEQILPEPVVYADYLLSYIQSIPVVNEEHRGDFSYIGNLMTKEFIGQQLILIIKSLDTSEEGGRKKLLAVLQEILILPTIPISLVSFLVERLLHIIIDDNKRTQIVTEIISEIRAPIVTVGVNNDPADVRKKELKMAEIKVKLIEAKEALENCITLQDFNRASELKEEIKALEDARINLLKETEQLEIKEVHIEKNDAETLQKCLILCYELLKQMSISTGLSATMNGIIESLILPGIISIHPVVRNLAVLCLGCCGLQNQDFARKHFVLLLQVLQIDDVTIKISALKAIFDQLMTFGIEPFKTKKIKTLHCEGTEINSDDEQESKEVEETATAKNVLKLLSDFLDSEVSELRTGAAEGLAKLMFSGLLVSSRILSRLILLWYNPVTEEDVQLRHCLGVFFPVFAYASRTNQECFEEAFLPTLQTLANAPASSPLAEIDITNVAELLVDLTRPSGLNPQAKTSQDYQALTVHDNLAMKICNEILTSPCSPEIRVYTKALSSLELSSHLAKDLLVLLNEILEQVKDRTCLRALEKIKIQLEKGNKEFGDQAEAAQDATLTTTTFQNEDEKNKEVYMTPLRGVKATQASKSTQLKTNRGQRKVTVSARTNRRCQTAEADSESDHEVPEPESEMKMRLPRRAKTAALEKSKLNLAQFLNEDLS
UniProt Q9UHB4: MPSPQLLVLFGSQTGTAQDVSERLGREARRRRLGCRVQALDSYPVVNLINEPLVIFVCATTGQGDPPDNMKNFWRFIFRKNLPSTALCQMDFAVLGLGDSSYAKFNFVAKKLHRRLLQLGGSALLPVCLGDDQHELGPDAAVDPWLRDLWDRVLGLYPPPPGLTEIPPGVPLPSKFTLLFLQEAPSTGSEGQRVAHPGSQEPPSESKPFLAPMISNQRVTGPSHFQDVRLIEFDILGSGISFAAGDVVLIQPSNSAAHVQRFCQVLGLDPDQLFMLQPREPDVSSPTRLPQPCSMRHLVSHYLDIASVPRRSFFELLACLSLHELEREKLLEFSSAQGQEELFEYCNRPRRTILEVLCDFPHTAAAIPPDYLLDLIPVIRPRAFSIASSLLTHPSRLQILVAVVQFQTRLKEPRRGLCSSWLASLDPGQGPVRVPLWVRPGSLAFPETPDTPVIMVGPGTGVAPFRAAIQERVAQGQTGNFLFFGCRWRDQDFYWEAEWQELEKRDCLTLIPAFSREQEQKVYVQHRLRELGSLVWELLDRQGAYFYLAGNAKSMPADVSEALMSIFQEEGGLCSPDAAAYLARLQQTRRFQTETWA

Legend:
Experiment in all cases: log2 fold change, soluble protein after heating vs DMSO (PISA); higher = thermal stabilisation; K562 cells, 10 uM, 30 min; active = over 0.2 and 3.5 SD of the protein, either way, in both replicates (recomputed)
[1] = compound: Cc1ccc(NC(=O)c2ccc(CN3CC[C@H](N(C)C)C3)c(C(F)(F)F)c2)cc1Nc1nccc(-c2cncnc2)n1 [bafetinib]
Summary of the method: (§1)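 Quantification of soluble protein used TMTpro 16plex LC-MS/MS, with channel sums equalised. Samples were the supernatant after 21,000xg for 90 min of pooled aliquots from K562 cells (2×10^6 cells/mL) treated with 10 μM compound for 30 min, heated for 3 min over 48°C-58°C, and extracted in PBS with 0.5% NP-40 at 4°C. Values, from duplicates, describe thermal stability against control samples on a log2 fold-change scale.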

[2] = compound: Cc1cccc(CC(=O)N2CCc3c2ccc(-c2cn(C)c4ncnc(N)c24)c3F)n1
Summary of the method: as §1

[3] = compound: Cc1cn(-c2cc(NC(=O)c3ccc(C)c(Nc4nccc(-c5cccnc5)n4)c3)cc(C(F)(F)F)c2)cn1 [nilotinib]
Summary of the method: as §1

[4] = compound: Cc1nc(Nc2n[nH]c3c2CN(C(=O)N[C@H](CN(C)C)c2ccccc2)C3(C)C)c2sccc2n1
Summary of the method: as §1

[5] = compound: Cc1nc(Nc2ncc(C(=O)Nc3c(C)cccc3Cl)s2)cc(N2CCN(CCO)CC2)n1 [dasatinib]
Summary of the method: as §1

[6] = compound: Cc1ncc(-c2ccnc(Nc3ccc(S(C)(=O)=O)cc3)n2)n1C(C)C
Summary of the method: as §1

[7] = compound: Cn1cc(-c2ccc3c(c2)CCN3C(=O)Cc2cccc(C(F)(F)F)c2)c2c(N)ncnc21
Summary of the method: as §1

[8] = compound: Cn1cc(-c2ccc3nnc(C(F)(F)c4ccc5ncccc5c4)n3n2)cn1
Summary of the method: as §1

[9] = compound: Cn1cncc1[C@@](N)(c1ccc(Cl)cc1)c1ccc2c(c1)c(-c1cccc(Cl)c1)cc(=O)n2C [tipifarnib]
Summary of the method: as §1

[10] = compound: FC(F)(F)c1ccc(/C=C/c2nc(COc3ccc(CCCCn4ccnn4)cc3)co2)cc1 [mubritinib]
Summary of the method: as §1

Measured: log2 fold change

NDUFS1 isoform 2 (UniProt P28331)
inactive: [1] 0.026 | [2] 0.075 | [3] -0.053 | [4] 0.001 | [5] -0.112 | [6] -0.016 | [7] 0.048 | [8] 0.036 | [9] -0.034 | [10] 0.131

NDUFS3 (UniProt O75489)
inactive: [1] -0.033 | [2] 0.084 | [3] -0.031 | [4] 0.003 | [5] -0.047 | [6] 0.008 | [7] 0.052 | [8] -0.038 | [9] -0.032 | [10] 0.055

NDC1 (UniProt Q9BTX1)
inactive: [1] -0.128 | [2] 0.016 | [3] 0.002 | [4] -0.002 | [5] 0.02 | [6] -0.015 | [7] 0.016 | [8] 0.05 | [9] -0.018 | [10] 0.024

NDUFAF6 (UniProt Q330K2)
inactive: [1] -0.178 | [2] 0.014 | [3] 0.01 | [4] -0.096 | [5] -0.064 | [6] 0.017 | [7] 0.01 | [8] 0 | [9] -0.11 | [10] 0.028

NDUFB7 (UniProt P17568)
inactive: [1] 0 | [2] 0.164 | [3] -0.029 | [4] 0.057 | [5] 0.022 | [6] -0.053 | [7] 0.043 | [8] 0.01 | [9] -0.029 | [10] -0.007

NDUFA8 (UniProt P51970)
inactive: [1] -0.165 | [2] 0.013 | [3] -0.009 | [4] 0.037 | [5] 0.011 | [6] -0.004 | [7] 0.035 | [8] 0.197 | [9] 0.009 | [10] 0.014

NAA16 (UniProt Q6N069)
inactive: [1] -0.029 | [2] -0.055 | [3] 0.013 | [4] 0.006 | [5] -0.087 | [6] -0.061 | [7] 0.028 | [8] -0.069 | [9] 0.02 | [10] -0.046

NANS (UniProt Q9NR45)
inactive: [1] 0.04 | [2] 0.05 | [3] 0.069 | [4] -0.007 | [5] -0.018 | [6] -0.018 | [7] 0.05 | [8] -0.017 | [9] -0.067 | [10] -0.023

NCAPD3 (UniProt P42695)
inactive: [1] -0.104 | [2] -0.035 | [3] -0.069 | [4] 0.027 | [5] -0.008 | [6] -0.01 | [7] -0.017 | [8] 0.073 | [9] 0.004 | [10] 0.102

NDUFS6 (UniProt O75380)
inactive: [1] 0.015 | [2] -0.023 | [3] 0.063 | [4] 0.045 | [5] 0.112 | [6] -0.071 | [7] -0.037 | [8] -0.015 | [9] 0.101 | [10] 0.097

NDUFA12 (UniProt Q9UI09)
active: [10] 0.326
inactive: [1] 0 | [2] 0.089 | [3] -0.158 | [4] -0.031 | [5] -0.107 | [6] 0.029 | [7] 0.109 | [8] 0.062 | [9] -0.007

NCEH1 isoform 2 (UniProt Q6PIU2)
inactive: [1] -0.031 | [2] -0.045 | [3] -0.013 | [4] -0.012 | [5] 0.009 | [6] 0.02 | [7] 0.025 | [8] 0.03 | [9] 0.064 | [10] 0.05

NDST1 (UniProt P52848)
inactive: [1] 0.002 | [2] 0.034 | [3] 0.032 | [4] -0.019 | [5] 0.034 | [6] -0.028 | [7] -0.123 | [9] 0.026 | [10] -0.065

NAA11 (UniProt Q9BSU3)
inactive: [1] 0 | [3] -0.093 | [4] 0.015 | [5] 0.059 | [6] -0.003 | [7] 0.102 | [8] 0.176 | [9] 0.011 | [10] -0.081

NBDY, A0A0U1RRE5
inactive: [1] -0.01 | [2] -0.16 | [3] -0.033 | [4] 0.021 | [5] 0.03 | [6] -0.108 | [7] 0.011 | [8] -0.024 | [9] -0.094 | [10] -0.039

NCSTN (UniProt Q92542)
inactive: [1] -0.041 | [2] 0.014 | [3] -0.007 | [4] 0.03 | [5] 0.006 | [6] -0.044 | [7] 0.041 | [8] -0.032 | [9] 0.085 | [10] -0.002

Quoted from the listing (two entries):
NCEH1 isoform 2 (UniProt Q6PIU2)
inactive: [1] -0.031 | [2] -0.045 | [3] -0.013 | [4] -0.012 | [5] 0.009 | [6] 0.02 | [7] 0.025 | [8] 0.03 | [9] 0.064 | [10] 0.05

NDST1 (UniProt P52848)
inactive: [1] 0.002 | [2] 0.034 | [3] 0.032 | [4] -0.019 | [5] 0.034 | [6] -0.028 | [7] -0.123 | [9] 0.026 | [10] -0.065

(next part)

NDUFAB1 (UniProt O14561)
inactive: [1] -0.025 | [2] -0.266 | [3] 0.101 | [4] 0.001 | [6] -0.064 | [7] 0.072 | [8] 0.261 | [10] -0.044

NDUFB11 isoform 2 (UniProt Q9NX14)
inactive: [1] -0.063 | [2] -0.044 | [3] 0.003 | [4] 0.022 | [5] 0.019 | [6] -0.02 | [7] 0.119 | [8] 0.035 | [9] -0.044 | [10] 0.026

NAP1L1 (UniProt B7Z9C2)
inactive: [1] -0.11 | [2] -0.249 | [3] -0.011 | [4] -0.002 | [5] -0.347 | [6] -0.043 | [10] 0.049

NDUFS2 (UniProt O75306)
inactive: [1] -0.019 | [2] 0.018 | [3] 0.011 | [4] 0.002 | [5] -0.081 | [6] -0.028 | [7] 0.04 | [8] 0.026 | [9] -0.018 | [10] 0.068

NAGA (UniProt P17050)
inactive: [1] -0.156 | [2] -0.034 | [3] -0.04 | [4] 0.016 | [5] 0.028 | [6] 0.002 | [7] 0.04 | [8] 0.022 | [9] 0.072 | [10] 0.047

NA (UniProt B2RBV5)
active: [4] 0.828
inactive: [1] -0.005 | [2] -0.084 | [3] -0.433 | [6] -0.195 | [9] 0.075 | [10] 0.04

NCOA6 (UniProt Q14686)
inactive: [1] -0.053 | [2] 0.059 | [3] 0.021 | [4] 0.006 | [6] -0.001 | [8] 0.007 | [9] 0.048 | [10] -0.018

NCAPG (UniProt Q9BPX3)
inactive: [1] 0.076 | [2] 0.06 | [3] -0.032 | [4] -0.07 | [5] -0.085 | [6] 0.065 | [7] -0.016 | [8] 0.012 | [9] -0.142 | [10] -0.003

NDOR1 isoform 2 (UniProt Q9UHB4)
inactive: [1] -0.08 | [2] 0.055 | [3] 0.035 | [4] -0.07 | [5] -0.087 | [6] 0.041 | [7] 0.085 | [8] 0 | [9] 0.032 | [10] -0.084
